# Results of single-concentration screens

Protein sequences, listed by entry. Tags and fused reporters are not part of them.
UniProt P9WPC5, whole entry: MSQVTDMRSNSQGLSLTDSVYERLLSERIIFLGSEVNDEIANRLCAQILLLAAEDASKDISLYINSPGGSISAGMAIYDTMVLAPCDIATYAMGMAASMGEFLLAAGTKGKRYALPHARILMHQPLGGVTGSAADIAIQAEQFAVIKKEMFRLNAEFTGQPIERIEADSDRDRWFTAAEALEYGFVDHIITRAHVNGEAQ
UniProt P9WPC3, whole entry partner: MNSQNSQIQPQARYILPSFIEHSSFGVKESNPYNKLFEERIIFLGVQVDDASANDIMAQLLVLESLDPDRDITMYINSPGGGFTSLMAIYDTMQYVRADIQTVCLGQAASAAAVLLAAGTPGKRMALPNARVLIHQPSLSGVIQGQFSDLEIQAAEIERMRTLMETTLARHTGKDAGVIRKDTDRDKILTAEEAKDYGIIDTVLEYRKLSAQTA
UniProt P9WNZ1, whole entry: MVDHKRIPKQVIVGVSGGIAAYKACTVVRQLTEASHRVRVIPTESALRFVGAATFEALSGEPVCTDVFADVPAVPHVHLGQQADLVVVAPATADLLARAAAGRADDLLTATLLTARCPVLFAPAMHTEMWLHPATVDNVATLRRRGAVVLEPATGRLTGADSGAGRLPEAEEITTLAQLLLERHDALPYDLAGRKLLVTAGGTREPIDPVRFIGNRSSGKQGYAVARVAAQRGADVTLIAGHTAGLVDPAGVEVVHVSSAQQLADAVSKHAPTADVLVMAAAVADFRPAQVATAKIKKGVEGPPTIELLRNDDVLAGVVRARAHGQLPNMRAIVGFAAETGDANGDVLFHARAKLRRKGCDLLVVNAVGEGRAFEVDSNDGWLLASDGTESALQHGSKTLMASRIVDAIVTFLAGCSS

The values are deposited in ChEMBL (CHEMBL3988442, “University of Dundee, Small-Polar-MMV Screening Library” (2021)).

A: 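ClpP1P2, Mycobacterium tuberculosis (UniProt P9WPC5 and UniProt P9WPC3). Protease assay of ClpP1P2, read by the AMC dye that it sets free. Concentration: 50 µM. Higher reads as stronger inhibition, judged from the few compounds that gave an IC50. Most other retested compounds had strongly negative values. Size under these conditions: about 69,000 compounds, about 10 of them at 50% or above in at least one test.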
B: 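Enzyme assay of CoaBC with a phosphate dye (Biomol Green) read at 650 nm. Target: Coenzyme A biosynthesis protein CoaBC, Mycobacterium tuberculosis (UniProt P9WNZ1). Compounds at 30 µM. Higher reads as stronger inhibition, judged from the few compounds that gave an IC50. Most strong results did not repeat in a second test. About 67,000 compounds were tested under these conditions; 0.06% (about 40) showed 50% or more at least once.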
C: 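Assay of Toxoplasma gondii numbers, read through their beta-galactosidase reporter with a colour substrate. Compounds at 10 µM. Higher reads as fewer parasites (inferred from which compounds were picked for retests). About 67,000 compounds were tested under these conditions; 0.38% (about 260) showed 50% or more at least once.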

Values are the deposited “Percent Effect”, in %.
The controls that fix the scale are not given in the record; negative values are as filed.
The compounds are a random part of those screened.
A dash means the value is not listed here; it may have been measured.

| # | structure | A | B | C |
|---|---|---|---|---|
| 1 | `CCCN1CCC(Nc2nc(C)ns2)CC1` | -4.67 | 0 | -7.227 |
| 2 | `CCc1ccccc1CN1CCn2nc(CNC(C)=O)cc2C1` | 14.86 | 1.392 | 12.33 |
| 3 | `CCOC(C)c1nc(CN2CCN(CC(F)F)CC2)cs1` (centres unmarked) | -7.088 | -6.846 | 2.858 |
| 4 | `Cc1cc(C)c(CNC(=O)c2ccc3c(c2)CCC3)c(=O)[nH]1` | -15.37 | 7.143 | 1.436 |
| 5 | `CN(C)S(=O)(=O)c1ccc(CNC(=O)c2cn3c(n2)CNCC3)cc1` | 3.784 | -0.8526 | -0.3277 |
| 6 | `Cc1ccccc1C(C(=O)N(Cc1cnn(C)c1)CC(C)C)N(C)C` (centres unmarked) | -1.126 | 2.41 | 5.98 |
| 7 | `COCCNC(=O)C[C@@H]1COC[C@H]2CN(C(=O)C3CCOCC3)C[C@@H]12` | -2.799 | -0.7426 | - |
| 8 | `Cc1c(O)oc(-c2ccc(Br)cc2)nc1=O` | 21.88 | 4.058 | -12.06 |
| 9 | `O=C(NC1CC1)N1CCc2ccc(=O)n(Cc3ccncc3)c2CC1` | 6.278 | 7.4 | 9.953 |
| 10 | `CCOc1ccc(S(=O)(=O)NC(=O)CCC2CCCO2)cc1` (centres unmarked) | 7.919 | 4.152 | 7.065 |
| 11 | `CC(c1ccccn1)N(C)C(=O)NCCn1c(=O)oc2ccccc21` (centres unmarked) | -2.735 | 9.664 | 5.915 |
| 12 | `CCc1cnc(N2C[C@H]3C[C@H](C(=O)N(C)C)[C@@H](C2)O3)nc1` | 4.927 | 0.1269 | - |
| 13 | `CCOc1ccccc1CNC(=O)N1CCC(n2cncn2)CC1` | -2.345 | 3.106 | -21.14 |
| 14 | `COc1ccc(N2CCC(N(C)C(=O)Nc3ccncc3)CC2)cc1` | 8.272 | 2.694 | 1.27 |
| 15 | `O=C(NCC1CC1)[C@H]1C[C@@H]2[C@@H](C1)OCCN2Cc1cccnc1` | -8.421 | 0.8883 | - |
| 16 | `CCC(CO)NC(=O)Nc1cc(F)ccc1SCC(F)F` (centres unmarked) | 0.1527 | 6.405 | -6.559 |
| 17 | `O=C(c1cc(-c2ccco2)nc2c(Cl)cccc12)N1CCS(=O)(=O)CC1` | -73.44 | -3.415 | 12.22 |
| 18 | `Cc1cccc(CN2CCC3(CC2)NC(=O)CC3c2ccccc2)n1.O=C(O)C(F)(F)F` (centres unmarked) | - | - | -5.175 |
| 19 | `COC(=O)CNC(=O)CSCc1nc(O)c2cc(C)sc2n1` | 10.91 | -6.638 | 0.7653 |
| 20 | `O=S(=O)(C1CC1)N1CCO[C@H]2[C@H](OCCN3CCCC3)CC[C@@H]21` | 13.99 | 1.396 | - |
| 21 | `Cn1cncc1CN1CCCC1c1cncc(Oc2ccc(F)cc2)n1` (centres unmarked) | -2.267 | 14.22 | 14.08 |
| 22 | `CCc1nc(C2CCCN(C(=O)c3cn(C)nc3C)C2)no1` (centres unmarked) | -3.118 | -5.059 | 5.385 |
| 23 | `CCN1Cc2cc3c(cc2NCCC1=O)OCO3` | 8.746 | 0.1227 | 0.5573 |
| 24 | `CN(C)Cc1nnc2n1CCCN(C(=O)c1c[nH]cn1)C2` | -3.865 | 1.895 | -3.386 |
| 25 | `Cc1ncc2c(n1)CN(c1ncnc3[nH]ccc13)CC2` | 3.148 | 4.126 | -3.487 |
| 26 | `O=C(O)C(F)(F)F.O=C(c1cnccn1)N1CCCC2(CCN(Cc3ccc(F)cc3)C2)C1` (centres unmarked) | - | - | 9.859 |
| 27 | `COCCOC(=O)N1CCC(c2nccn2CC2CC2)CC1` | -13.95 | -1.568 | -15.25 |
| 28 | `CC(Oc1ccc(OCc2ncc(C(C)C)o2)cc1)C(N)=O` (centres unmarked) | -6.624 | 0.489 | -9.863 |
| 29 | `COCC(=O)NC(c1ccc(Cl)cc1)C(F)(F)F` (centres unmarked) | -3.357 | 4.862 | 3.599 |
| 30 | `Cc1ccc(CN(CCCN2CCOCC2)Cc2cnc(C)n2C)o1` | 1.679 | 9.271 | - |
| 31 | `CC(Cn1cccn1)NC(=O)NCCc1cccnc1` (centres unmarked) | 4.299 | 9.184 | -6.286 |
| 32 | `CN1CCN(Cc2ccccc2Oc2cncc(C(N)=O)n2)CC1` | 1.253 | -4.202 | -9.014 |
| 33 | `Cn1cc(CN2CCC(CCC(=O)Nc3ccccc3Cl)CC2)cn1` | -9.604 | 8.423 | 0.6112 |
| 34 | `CN(CCO)CC1COCCN1C(=O)CCC1CCCC1.O=CO` (centres unmarked) | - | - | -14.54 |
| 35 | `Cn1ccnc1-c1ccccc1C(=O)N1CCc2c(nc(N)[nH]c2=O)C1` | 3.404 | 3.636 | 8.359 |
| 36 | `O=C(NCC(F)(F)F)C1CN(C(=O)c2cnccn2)C1` | -5.872 | 2.326 | 4.633 |
| 37 | `COc1ccc(C(=O)NCc2cccnc2N2CCOCC2)o1` | -4.313 | -4.327 | 3.299 |
| 38 | `Cc1ccsc1CNC(=O)CCc1c(C)nc2cc(O)nn2c1C` | -11.31 | -4.774 | -4.325 |
| 39 | `CC(=O)N1CCn2c(-c3cccc(F)c3)cnc2C12CCNCC2.O=C(O)C(F)(F)F` | - | - | -1.435 |
| 40 | `COc1cccc(CN2CCN(c3ccc4nncn4n3)C(C)C2)c1` (centres unmarked) | 3.754 | -5.06 | 0.6353 |
| 41 | `Cc1noc(C)c1CC(=O)NCC(C(C)C)N1CCOCC1` (centres unmarked) | 0.644 | 4.715 | -10.01 |
| 42 | `O=C1COc2ccc(Cl)cc2CN1CC1CC1` | -14.74 | 2.299 | -8.384 |
| 43 | `Cc1ccc(Sc2ccc(CN3CCC4(CC3)NCCNC4=O)o2)cc1` | -10.65 | 4.087 | -3.946 |
| 44 | `CCCc1nc(CN(CC)C(=O)c2onc3ccccc23)no1` | 2.727 | -3.802 | 44.23 |
| 45 | `O=C(c1ccco1)N1CC[C@H]2[C@H]1CCN2CC1CCOCC1` | 1.323 | 10.36 | - |
| 46 | `COc1cccc(CC2(CO)CCCN(c3nccs3)C2)c1` (centres unmarked) | -15.62 | 4.569 | 5.533 |
| 47 | `c1csc(-c2nc(CN3CCOC(Cn4cncn4)C3)cs2)c1` (centres unmarked) | -13.07 | 8.514 | -3.327 |
| 48 | `Cc1csc(C2CCCCN2C(=O)c2c[nH]c(C)n2)n1` (centres unmarked) | -13.72 | 1.195 | -9.599 |
| 49 | `c1ccc(-c2nc(CN3CCn4c(nnc4C4CC4)C3)co2)cc1` | -30.3 | 4.961 | -0.2516 |
| 50 | `COCC(=O)N1CCC2(CCC2N(C)Cc2ccco2)CC1.O=C(O)C(F)(F)F` (centres unmarked) | - | - | 8.965 |
| 51 | `CN1CCC(c2nnc(CN3CCC(O)CC3)n2C)CC1` | 2.837 | -0.6397 | 2.737 |
| 52 | `CCCc1nnc(NC(C)c2ccc(F)cc2)o1` (centres unmarked) | -6.217 | 0.2457 | 8.207 |
| 53 | `Cc1nc(NC2CCOCC2)cc(C2CCN2S(C)(=O)=O)n1` (centres unmarked) | -6.377 | -9.091 | -16.95 |
| 54 | `COc1cc(C(=O)N2CCCC(CNS(C)(=O)=O)C2)cc(OC)c1C` (centres unmarked) | 9.777 | 2.017 | 3.504 |
| 55 | `Cc1cc(C2CCCN2Cc2cc(=O)n(C)c(=O)n2C)on1` (centres unmarked) | -2.957 | 1.956 | 10.43 |
| 56 | `Cc1cnc(N2CC3(CCN(C(=O)c4ccoc4)C3)C2)nc1` | 1.796 | 1.364 | 10.46 |
| 57 | `Cc1cnc2n1CCN(C)C21CCN(C(=O)CC(C)C)CC1.O=C(O)C(F)(F)F` | - | - | 2.137 |
| 58 | `COCc1cnc2n1CCN(S(=O)(=O)N(C)C)C2C` (centres unmarked) | -2.133 | - | 2.643 |
| 59 | `COc1ccc(CN(Cc2cncn2C)CC2CCCO2)cc1OC` (centres unmarked) | -9.612 | 1.667 | - |
| 60 | `COc1cc(-c2n[nH]c(CC#N)n2)cc(OC)c1OC` | 28.87 | 1.928 | -6.167 |
| 61 | `O=C(O)C(F)(F)F.O=C(O)C(F)(F)F.[H][C@]12C[C@@H](C(=O)Nc3cccnc3)CO[C@@]1([H])CCN(C(C)C)C2` | - | - | 12.63 |
| 62 | `O=C(O)C(F)(F)F.O=C(O)C(F)(F)F.[H][C@@]12CCN(Cc3cccc(C)n3)[C@]1([H])CC[C@@H](C(=O)Nc1cnccn1)O2` | - | - | -4.636 |
| 63 | `[H][C@@]12CS(=O)(=O)C[C@]1([H])N(C(=O)Nc1cccc(C#N)c1)CCN2C(=O)CC` | - | - | -7.995 |
| 64 | `CC1=Nc2c(c(=O)[nH]n2C(C)C)C(c2cccs2)S1` (centres unmarked) | 5.628 | -0.9421 | -5.858 |
| 65 | `Cc1cc(C)n(CC(=O)NCc2ccccn2)n1` | 1.439 | 3.704 | -3.153 |
| 66 | `Cc1cnn(CC(C)NCc2nc(-c3ccccn3)no2)c1` (centres unmarked) | -19.21 | 2.041 | -0.9153 |
| 67 | `CCn1ncc2c1C(COC)CN(Cc1cnn(C)c1)C2` (centres unmarked) | -10.7 | -3.704 | 2.377 |
| 68 | `[H][C@@]12CN(C(=O)N(C)C)C[C@]1([H])C(=O)NC21CCN(C(=O)COC)CC1` | - | - | -37.36 |
| 69 | `Cc1cc(C[C@@H]2CCC[C@H]2NCc2cc(F)ccc2F)on1` | -12.88 | -0.4854 | - |

For reference, 6 entries once more:

structure	A	B	C
CN1CCN(Cc2ccccc2Oc2cncc(C(N)=O)n2)CC1	1.253	-4.202	-9.014
O=C(NC1CC1)N1CCc2ccc(=O)n(Cc3ccncc3)c2CC1	6.278	7.4	9.953
COC(=O)CNC(=O)CSCc1nc(O)c2cc(C)sc2n1	10.91	-6.638	0.7653
O=C(NCC1CC1)[C@H]1C[C@@H]2[C@@H](C1)OCCN2Cc1cccnc1	-8.421	0.8883	-
c1csc(-c2nc(CN3CCOC(Cn4cncn4)C3)cs2)c1 (centres unmarked)	-13.07	8.514	-3.327
CN(CCO)CC1COCCN1C(=O)CCC1CCCC1.O=CO (centres unmarked)	-	-	-14.54